Measured data: PubChem BioAssay AID686937 (Drosophila RNAi Screening Center, 2013)
The screen tested about 23,000 reagents; this is a random part of those with a known target gene and a result. 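Reduced-secretion tags in replicate 1 do not always agree with the z-scores; no criterion for assigning the tags was given.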 The numbers tell different reagents against one gene apart. A plus sign joins genes that one reagent is predicted to hit. Further read-outs or replicates are left out here. Not given: the amount of reagent.

- Assay: 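Knock-downs that reduce output of a secreted reporter enzyme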 (primary screen)
- Cell system: Drosophila S2 cells expressing secreted horseradish peroxidase
- Knock-down reagent: long dsRNA against Drosophila genes
- Time to read-out: about 5.5 days (5 days dsRNA, then 12 h reporter induction)
- Challenge: reporter expression induced after 5 days of dsRNA, read 12 h later; inducer not stated
- Measured: 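Chemiluminescent measurement of peroxidase in the medium 12 h after reporter induction, following 5 days of dsRNA, given as a z-score per plate; higher means more secretion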
- Scale: z-score: higher = more reporter secreted into medium

{"Gene":"CG13010","dsRNA no.":1,"z-score, replicate 1":-0.16}
{"Gene":"CG14767","dsRNA no.":1,"z-score, replicate 1":0.2}
{"Gene":"Zif","dsRNA no.":1,"z-score, replicate 1":-1.06}
{"Gene":"c(3)G","dsRNA no.":1,"z-score, replicate 1":-0.53}
{"Gene":"stj","dsRNA no.":1,"z-score, replicate 1":0.32}
{"Gene":"Coq6","dsRNA no.":1,"z-score, replicate 1":0.19}
{"Gene":"CG32099","dsRNA no.":1,"z-score, replicate 1":-0.65,"phenotype, replicate 1":"reduced secretion"}
{"Gene":"CG42304 + Snup","dsRNA no.":1,"z-score, replicate 1":0.16}
{"Gene":"CG42304 + Snup","dsRNA no.":2,"z-score, replicate 1":-0.21}
{"Gene":"CG42304 + Snup","dsRNA no.":3,"z-score, replicate 1":2.97}
{"Gene":"Phax","dsRNA no.":1,"z-score, replicate 1":0.26}
{"Gene":"CG9839","dsRNA no.":1,"z-score, replicate 1":0.29}
{"Gene":"kek1","dsRNA no.":1,"z-score, replicate 1":0}
{"Gene":"SLIRP1 + anox","dsRNA no.":1,"z-score, replicate 1":0.29}
{"Gene":"CG17490","dsRNA no.":1,"z-score, replicate 1":0.16}
{"Gene":"CG17490","dsRNA no.":2,"z-score, replicate 1":-0.08}
{"Gene":"tral","dsRNA no.":1,"z-score, replicate 1":-1.62,"phenotype, replicate 1":"reduced secretion"}
{"Gene":"CR43359","dsRNA no.":1,"z-score, replicate 1":0.28}
{"Gene":"Jon99Fii + Jon99Cii + Jon99Ciii + 1 more","dsRNA no.":1,"z-score, replicate 1":0.24}
{"Gene":"CG10949","dsRNA no.":1,"z-score, replicate 1":0.18}
{"Gene":"sktl","dsRNA no.":1,"z-score, replicate 1":0.32}
{"Gene":"Pex5","dsRNA no.":1,"z-score, replicate 1":0.37}
{"Gene":"CG33792","dsRNA no.":1,"z-score, replicate 1":0.08}
{"Gene":"veli","dsRNA no.":1,"z-score, replicate 1":0.12}
{"Gene":"Cyp4p1","dsRNA no.":1,"z-score, replicate 1":0.38}
{"Gene":"CG10562","dsRNA no.":1,"z-score, replicate 1":0.11}
{"Gene":"alka","dsRNA no.":1,"z-score, replicate 1":0.44}
{"Gene":"Dna2","dsRNA no.":1,"z-score, replicate 1":0.36}
{"Gene":"Mdh1","dsRNA no.":1,"z-score, replicate 1":-0.03}
{"Gene":"Atpalpha","dsRNA no.":1,"z-score, replicate 1":0.13}
{"Gene":"Pld3","dsRNA no.":1,"z-score, replicate 1":0.07}
{"Gene":"out","dsRNA no.":1,"z-score, replicate 1":-0.18}
{"Gene":"Mtl","dsRNA no.":1,"z-score, replicate 1":-0.04}
{"Gene":"fzo","dsRNA no.":1,"z-score, replicate 1":0.33}
{"Gene":"CG10700","dsRNA no.":1,"z-score, replicate 1":0.17}
{"Gene":"CG42502 + CG10570","dsRNA no.":1,"z-score, replicate 1":0.65}
{"Gene":"sni","dsRNA no.":1,"z-score, replicate 1":0.15}
{"Gene":"Lcp2","dsRNA no.":1,"z-score, replicate 1":0.46}
{"Gene":"CG2528","dsRNA no.":1,"z-score, replicate 1":-0.09}
{"Gene":"CG4853","dsRNA no.":1,"z-score, replicate 1":0.45}
{"Gene":"Rcd5","dsRNA no.":1,"z-score, replicate 1":-0.42}
{"Gene":"CG18539","dsRNA no.":1,"z-score, replicate 1":0.32}
{"Gene":"CG15357","dsRNA no.":1,"z-score, replicate 1":0.29}
{"Gene":"UQCR-14","dsRNA no.":1,"z-score, replicate 1":0.05}
{"Gene":"CG6431","dsRNA no.":1,"z-score, replicate 1":-0.08}
{"Gene":"CecC","dsRNA no.":1,"z-score, replicate 1":0.35}
{"Gene":"CG14810","dsRNA no.":1,"z-score, replicate 1":-1.38}
{"Gene":"CG14810","dsRNA no.":2,"z-score, replicate 1":0.19}
{"Gene":"CG15710","dsRNA no.":1,"z-score, replicate 1":0.25}
{"Gene":"CG31365","dsRNA no.":1,"z-score, replicate 1":0.18}
{"Gene":"CG9702","dsRNA no.":1,"z-score, replicate 1":0.24}
